Values from PubChem BioAssay AID504791 (Drosophila RNAi Screening Center, 2011)

- Test: 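Genes whose knock-down strengthens or weakens small-RNA reporter silencing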 (primary screen)
- System: Drosophila S2-derived reporter cells
- Knock-down reagent: long dsRNA against Drosophila genes, about 150-250 ng dsRNA per well (siRNA assay); about 80-120 ng (miRNA assay)
- Timing: about 5 days (siRNA assay); about 4 days (miRNA assay)
- Challenge: copper sulfate induction of reporters: 25 µM (siRNA assay); 200 mM stated (miRNA assay), 1-2 days before reading
- Measured: 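Per-well ratio of Renilla over firefly light, expressed relative to that plate's average ratio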
- Scale: siRNA reporter hit score: higher = 3 marks a strong hit with raised ratio; -3 a strong hit with lowered ratio
- Hit rule: 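a well was a first-pass pick when its plate-scaled ratio rose above 1.5 (siRNA assay) or 1.6 (miRNA assay), or dropped below 0.6; a gene counted only if two separate dsRNAs agreed on retest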
In all, the deposit lists about 23,000 reagents; shown is a random part of those with a known target gene and a result. Over the whole deposit, 199 (0.86%) got an active call. 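Plate-scaled ratios behind the calls are not deposited; printed light signals are raw; many rows marked increased or decreased are still called inactive.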 Reagent sequences are not shown.

GckIII (Germinal centre kinase III) [DRSC15729] showed stable assay Renilla, run 1 (luminescence) = 7323; stable assay firefly, run 1 (luminescence) = 4.38e5; inactive. For Mad [DRSC00759], the entry reads stable assay Renilla, run 1 (luminescence) = 7020; stable assay firefly, run 1 (luminescence) = 3.90e5; inactive. CG42780 [DRSC17514] showed stable assay Renilla, run 1 (luminescence) = 5472; stable assay firefly, run 1 (luminescence) = 4.57e5; inactive. CG12860 [DRSC06200] showed stable assay Renilla, run 1 (luminescence) = 6294; stable assay firefly, run 1 (luminescence) = 3.06e5; inactive. For CG42564 [DRSC12518] the deposit lists stable assay Renilla, run 1 (luminescence) = 7243; stable assay firefly, run 1 (luminescence) = 4.25e5; inactive. Against CG6428 [DRSC18402] the deposit lists stable assay Renilla, run 1 (luminescence) = 5399; stable assay firefly, run 1 (luminescence) = 3.30e5; inactive.

Against CG6739 [DRSC02987], the values are stable assay Renilla, run 1 (luminescence) = 7142; stable assay firefly, run 1 (luminescence) = 4.30e5; inactive. Knock-down of CG10222 [DRSC09714] resulted in: stable assay Renilla, run 1 (luminescence) = 6228; stable assay firefly, run 1 (luminescence) = 3.73e5; inactive. Tbca (Tubulin binding cofactor A) [DRSC15395] scored stable assay Renilla, run 1 (luminescence) = 7374; stable assay firefly, run 1 (luminescence) = 4.40e5; inactive. For CG9467 [DRSC16498], the values are stable assay Renilla, run 1 (luminescence) = 8508; stable assay firefly, run 1 (luminescence) = 4.10e5; inactive. CG30076 [DRSC05494] gave stable assay Renilla, run 1 (luminescence) = 6214; stable assay firefly, run 1 (luminescence) = 4.63e5; inactive.

Part of the list above in another layout:
Target gene,dsRNA,siRNA reporter hit score,"stable assay Renilla, run 1 (luminescence)","stable assay firefly, run 1 (luminescence)",Outcome
Mad,DRSC00759,,7020,3.90e5,inactive
CG42780,DRSC17514,,5472,4.57e5,inactive
CG12860,DRSC06200,,6294,3.06e5,inactive
CG42564,DRSC12518,,7243,4.25e5,inactive
CG6428,DRSC18402,,5399,3.30e5,inactive

Next entries:
For CG10802 [DRSC17762], the values are stable assay Renilla, run 1 (luminescence) = 7335; stable assay firefly, run 1 (luminescence) = 5.26e5; inactive. Knock-down of mor (moira) [DRSC15378] came out at: siRNA reporter hit score 3; stable assay Renilla, run 1 (luminescence) = 5966; stable assay firefly, run 1 (luminescence) = 4.32e5; inactive. otk (off-track) [DRSC07658] showed stable assay Renilla, run 1 (luminescence) = 5287; stable assay firefly, run 1 (luminescence) = 2.96e5; inactive. Knock-down of CG3823 [DRSC18325] resulted in: stable assay Renilla, run 1 (luminescence) = 6203; stable assay firefly, run 1 (luminescence) = 4.30e5; inactive. Against CG11127 [DRSC06043], the entry reads stable assay Renilla, run 1 (luminescence) = 17835; stable assay firefly, run 1 (luminescence) = 2.37e6; inactive. hlk (hulk) [DRSC05021] showed stable assay Renilla, run 1 (luminescence) = 5662; stable assay firefly, run 1 (luminescence) = 3.29e5; inactive.

Knock-down of hlk (hulk) [DRSC05022] resulted in: stable assay Renilla, run 1 (luminescence) = 5618; stable assay firefly, run 1 (luminescence) = 4.29e5; inactive. For Start1 [DRSC04384] the deposit lists stable assay Renilla, run 1 (luminescence) = 38280; stable assay firefly, run 1 (luminescence) = 1.79e6; inactive. After knock-down of E(spl)mdelta-HLH (Enhancer of split mdelta, helix-loop-helix) [DRSC16698] the results were stable assay Renilla, run 1 (luminescence) = 6187; stable assay firefly, run 1 (luminescence) = 3.32e5; inactive. Against CG14464 [DRSC07760] the deposit lists stable assay Renilla, run 1 (luminescence) = 6543; stable assay firefly, run 1 (luminescence) = 3.15e5; inactive. Silencing of beg (bad egg) [DRSC10923] came out at: stable assay Renilla, run 1 (luminescence) = 6854; stable assay firefly, run 1 (luminescence) = 2.39e5; inactive. Against MICAL-like [DRSC09829] the deposit lists stable assay Renilla, run 1 (luminescence) = 8891; stable assay firefly, run 1 (luminescence) = 4.31e5; inactive.

CCT5 (Chaperonin containing TCP1 subunit 5) [DRSC07357] gave stable assay Renilla, run 1 (luminescence) = 8704; stable assay firefly, run 1 (luminescence) = 4.08e5; inactive. For Oamb (Octopamine receptor in mushroom bodies) [DRSC13433] the deposit lists stable assay Renilla, run 1 (luminescence) = 4659; stable assay firefly, run 1 (luminescence) = 4.75e5; inactive. Silencing of Oamb (Octopamine receptor in mushroom bodies) [DRSC15120] gave: stable assay Renilla, run 1 (luminescence) = 6468; stable assay firefly, run 1 (luminescence) = 3.66e5; inactive. Depletion of Oamb (Octopamine receptor in mushroom bodies) [DRSC16763] resulted in: stable assay Renilla, run 1 (luminescence) = 7442; stable assay firefly, run 1 (luminescence) = 3.88e5; inactive. For vsg (visgun) [DRSC10219], the entry reads stable assay Renilla, run 1 (luminescence) = 3988; stable assay firefly, run 1 (luminescence) = 2.62e5; inactive.
